Results taken from PubChem BioAssay AID2549 (National Center for Advancing Translational Sciences (NCATS), 2010).
Values joined by “and” are separate entries in the source; they are usually repeats but may differ in a detail not shown here. Equal values may be shown once. In all, about 240,000 compounds went through this assay and about 1,300 (0.54%) were called active. Inconclusive means that the source gave no clear call. Such entries were picked first, then a sample of the others. Calls follow the shape of the dose curve; as a rule, active = well fitted inhibition curve with a large enough effect; inconclusive = small, poorly fitted or top-dose-only effect; inactive = flat fitted curve, though single readings scatter. Where the call is inconclusive, the potency comes from a doubtful curve fit. More than one record can exist for a structure, and the calls need not agree.

Sequences of proteins named here, by UniProt entry; tags and fusion partners are left off. A change or cut given only in a name is not applied to a line headed by its entry.
UniProt P46063: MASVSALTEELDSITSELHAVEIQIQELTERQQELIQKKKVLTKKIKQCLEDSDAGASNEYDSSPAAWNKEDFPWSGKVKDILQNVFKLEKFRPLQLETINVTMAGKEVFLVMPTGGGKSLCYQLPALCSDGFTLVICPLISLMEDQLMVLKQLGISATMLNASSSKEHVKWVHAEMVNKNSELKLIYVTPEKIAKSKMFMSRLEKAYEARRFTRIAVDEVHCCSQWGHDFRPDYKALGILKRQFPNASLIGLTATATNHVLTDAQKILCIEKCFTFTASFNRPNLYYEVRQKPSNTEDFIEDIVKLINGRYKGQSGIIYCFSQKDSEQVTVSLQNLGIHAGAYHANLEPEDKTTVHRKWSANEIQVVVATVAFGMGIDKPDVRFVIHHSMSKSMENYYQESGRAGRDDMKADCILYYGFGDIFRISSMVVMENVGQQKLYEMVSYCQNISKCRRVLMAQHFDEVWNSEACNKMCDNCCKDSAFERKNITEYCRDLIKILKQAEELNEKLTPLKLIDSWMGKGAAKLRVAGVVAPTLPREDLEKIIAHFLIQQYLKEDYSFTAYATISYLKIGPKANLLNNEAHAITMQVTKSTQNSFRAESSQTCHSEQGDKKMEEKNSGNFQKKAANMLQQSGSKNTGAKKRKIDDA

biological target: ATP-dependent DNA helicase Q1 (Homo sapiens) (UniProt P46063); assay: qHTS Assay for Inhibitors of RecQ-Like Dna Helicase 1 (RECQ1); conditions: RECQ1 DNA unwinding, red fluorescence kinetic read; activity, negative = inhibition: at 57.3 µM (top of the series); series mostly up to 57.3 µM; also: nearly all actives have a fitted effect of over 30% in size
From the text: Survival of cells and the faithful propagation of the genome depend on elaborate mechanisms of detecting and repairing DNA damage. Treatment of advanced cancer relies on radiation therapy or chemotherapy, which kill cancer cells by causing extensive DNA damage. It is often found, that cancer cells develop resistance to therapy through enhanced activity of DNA repair functions; this has led to an increased interest in developing drugs that interfere with DNA repair, which could sensitize cancer cells to conventional therapy.
This validation qHTS assay pertains to human RECQ1, which is important in resolving abnormal DNA structures formed during replication or homologous recombination. Shutting down the expression of RECQ1 leads to chromosomal instability and higher radiation sensitivity in cultured cells.
The validation assay was a fluorescence quenching based kinetic qHTS for RECQ1 Helicase DNA unwinding. The activity was measured as ATP-dependent separation of a 20-bp DNA duplex extended by 30-nt single-stranded tails (forked duplex). The forked DNA substrate was tagged with rhodamine fluorophore (carboxytetramethyl rhodamine, TAMRA) and BHQ-2 (Black Hole Quencher 2) dark quencher. Strand separation results in an increase in the fluorescence of TAMRA (excitation 525 nm, emission 598 nm). This substrate construct operates in a red-shifted region where very few compound library members have been noted to fluoresce (PubChem AIDs 593 and 594). An additional feature of the assay is the inclusion of 2.5 ug/ml poly (dIdC), to reduce interference by compounds such as DNA intercalators, a major source of false inhibitors.
Opher Gileadi, Structural Genomics Consortium, University of Oxford
Screening Center PI: Austin, C.P.
Screening Center: NIH Chemical Genomics Center [NCGC]
Three uL of reaction buffer (25 mM Tris-HCl (pH 8.0), 5 mM NaCl, 2 mM MgCl2, 1mM DTT, 0.01% Tween- 20, and 2.5 ug/ml poly(dI-dC), including enzyme (50 nM RECQ1T1), were dispensed into a 1536-well Greiner black assay plate via solenoid-valve based nanoliter dispensers. Compounds (23 nl each in columns 5-48) and control (23 nl each in column 2 as dose-response) were transferred via a Kalypsys pintool equipped with a 1536-pin array. The plates were incubated for 15 min at room temperature, and then 1 ul of substrates (200 nM DNA and 2 mM ATP, final concentrations) was added to start the reaction. The plate was transferred into a ViewLux high-throughput CCD imager where the reaction progress was measured in a discontinuous kinetic mode (two reads spaced 2 hours apart, with intermediate room temperature incubation of the covered assay plate) by using standard red-fluorescence optics (excitation filter 525 nm, emission filter 598 nm). Enzyme-free and vehicle (DMSO) controls were included for signal normalization.
Potency is read from the fitted curve at half-maximal effect.

Compound | activity, negative = inhibition | Potency
CCOc1ccccc1N1CCN(C/C=C/c2ccc(N(C)C)cc2)CC1 | inactive: -7.74% | –
CC1=C(/C=C/C(C)=C/C=C/C(C)=C/C(=O)O)C(C)(C)CCC1 | – | inconclusive: 39.8 µM [inhibitor, single point]
CC(=O)C(C(C)=O)C1(O)C(=O)c2ccccc2C1=O | – | inconclusive: 31.6 µM [inhibitor, single point]
O=C(Nc1cccc(Cl)c1)OCC#CCCl | – | active: 28.2 µM
CCn1c(NN)nc2sc3c(c2c1=O)CCC3 | – | inconclusive: 31.6 µM [inhibitor, partial curve, poor fit]
CC/C(=N/NC(=O)c1ccc(Br)cc1)c1ccc(OCCN2CCOCC2)cc1 | – | inconclusive: 39.8 µM [inhibitor, single point]
COc1ccc(NC(=S)N(CCN(C)C)Cc2cccs2)cc1 | – | inconclusive: 0.0794 µM [inhibitor, partial curve, poor fit]
Nc1ccc(N2CCOCC2)c2nonc12 | – | inconclusive: 39.8 µM [inhibitor, single point]
CC(C)=CC[C@@H](O)C1=CC(=O)c2c(O)ccc(O)c2C1=O | – | active: 10 µM
CC(NC(=O)C12CC3CC(CC(C3)C1)C2)C(=O)N/N=C/C1=C(N2CCOCC2)C(=C\c2cccc([N+](=O)[O-])c2)/CC1 (stereo unspecified) | – | inconclusive: 39.8 µM [inhibitor, single point]
NS(=O)(=O)c1ccc(NC(=S)NC2CCCCC2)cc1 | – | inconclusive: 2.82 µM [inhibitor, single point]
CC1=C(C(=O)O)N2C(=O)C(NC(=O)C(N)c3ccc(O)cc3)C2SC1 (stereo unspecified) | inactive: 18.8% | –
CCCCCC#CCC#CCC#CCC#CCCCC(=O)O | – | active: 28.2 µM and active: 1.12 µM
O=C1NN(c2ccccc2)C(=O)/C1=C/c1ccc(Sc2cccc3ccccc23)o1 | – | active: 20 µM
CC(=O)[C@@H]1[C@H]2[C@H](C(=O)[C@H]3OC[C@@H]2O3)[C@H]2C=Cc3ccccc3N21 | – | active: 31.6 µM
O=C(c1sc2cc(F)ccc2c1Cl)N1CCN(c2ccccc2)CC1 | – | inconclusive: 0.02 µM [inhibitor, full curve, poor fit]
CC(C)(C)NC(=O)NC(=O)CSc1nnc(COc2ccccc2Cl)o1 | inactive: -7.7% | –
COc1ccc2c(c1)c(/C=N/Nc1nc3ccccc3[nH]1)c(C)n2C | – | inconclusive: 17.8 µM [inhibitor, partial curve, poor fit]
CC(=O)/C=C/c1ccc2ccccc2n1 | inactive: -11% | –
CS(=O)(=O)N1CCC(C(=O)Nc2ccc(Oc3ccccc3)cc2)CC1 | – | inconclusive: 39.8 µM [inhibitor, single point]
O=C(CSc1c2c(nc3ccccc13)CCCC2)NCc1ccco1 | – | active: 14.1 µM
COc1ccc(CCNc2ncnc3c2[nH]c2cc(OC)c(OC)cc23)cc1OC | – | active: 14.1 µM
C(=N\NC1=Nc2cccc3cccc1c23)/c1ccccc1 | inactive: -15.8% | –

Compound | activity, negative = inhibition | Potency
Cc1ccc(S(=O)(=O)Nc2ccc3c(c2)nc(C)n3C)cc1 | inactive: -5.95% | –
COC(=O)c1ccc(C23CC4(C2)[C@H](CN(CC2CCCCC2)[C@@H]4c2ccccc2)C3c2ccc(C(F)(F)F)cc2)cc1 (stereo partly specified) | – | inconclusive: 7.08 µM [inhibitor, single point]
COc1cc2c(cc1OC)C1(Nc3c-2c(C)nn3-c2ccccc2)C(=O)Nc2ccccc21 (stereo unspecified) | – | inconclusive: 7.08 µM [inhibitor, single point]
CCN(CC)c1ccc(/C=N/NC(=S)NCc2ccc(OC)cc2)cc1 | inactive: -11.9% | –
O=C(Nc1ccc([N+](=O)[O-])cc1)c1cn(-c2ccccc2)nc1-c1cc2ccccc2o1 | – | inconclusive: 1.26 µM [inhibitor, full curve, poor fit]
CC1=C/C(=C\C=C(C#N)C#N)N(C)c2ccccc21 | – | inconclusive: 11.2 µM [inhibitor, partial curve]
CCOC(=O)C1=C(C)N(C)C(=O)NC1c1cc2c(cc1[N+](=O)[O-])OCO2 (stereo unspecified) | – | inconclusive: 39.8 µM [inhibitor, single point]
O=C(O)CC(NC(=O)COc1ccc(Cl)cc1Cl)C(=O)O (stereo unspecified) | inactive: 14.5% | –
C[n+]1ccc(C(=O)N/N=C/c2ccco2)cc1 | inactive: -1.37% | –
Cc1ccc(S(=O)(=O)NCC(=O)N(CC(=O)NCC2CCCO2)Cc2ccco2)cc1 (stereo unspecified) | – | active: 22.4 µM
Cc1cc(/C=N/n2c(COc3ccccc3)nc3ccccc3c2=O)c(O)c([N+](=O)[O-])c1 | inactive: -3.63% | –
CCOC(=O)C1=C(CSc2nc(-c3ccccc3)ccc2C#N)OC(N)=C(C#N)C1c1cccnc1 (stereo unspecified) | inactive: -21.6% | –
CN1C(=O)CC(N2CCN(CC(=O)N3CCCC3)CC2)C1=O (stereo unspecified) | – | inconclusive: 22.4 µM [inhibitor, partial curve, poor fit]
COc1ccc(-n2c(Cc3cccn3C)nnc2SCC(=O)N2CCCc3ccccc32)cc1 | – | active: 15.8 µM
CCCc1nc2oc3cc(OC)ccc3c(=O)c2c(=O)n1Cc1ccco1 | – | inconclusive: 39.8 µM [inhibitor, partial curve]
CCn1c2ccccc2c2cc(NC(=O)c3ccc(=O)oc3)ccc21 | – | inconclusive: 39.8 µM [inhibitor, single point]
CCN1/C(=C/c2ccc3cc(C)ccc3[n+]2CC)Sc2ccccc21 | – | inconclusive: 39.8 µM [inhibitor, single point]
O=C(Cn1cc[n+](CC(=O)c2ccccc2)c1)c1ccccc1 | – | active: 22.4 µM
CCC(C)(C)NC(=O)CN(Cc1cccs1)C(=O)CNS(=O)(=O)c1ccc(F)cc1 | – | inconclusive: 31.6 µM [inhibitor, single point]
Cc1ccc(-c2csc(NC(=O)CSc3nc4ccccc4[nH]3)n2)cc1 | inactive: -8.41% | –
O=C1NC(=S)S/C1=C\C=C\c1ccc([N+](=O)[O-])o1 | – | active: 12.6 µM
O=C(/C=C/c1ccco1)N(Cc1ccc(F)cc1)C1CCS(=O)(=O)C1 (stereo unspecified) | – | inconclusive: 5.62 µM [inhibitor, partial curve, poor fit]
CSc1nsc(SC)c1NC(=O)OCCc1ccccn1 | – | inconclusive: 0.112 µM [inhibitor, single point]

Full records, looked up by structure.
C(=N\NC1=Nc2cccc3cccc1c23)/c1ccccc1 as listed: activity, negative = inhibition: inactive: -15.8%
Cc1ccc(-c2csc(NC(=O)CSc3nc4ccccc4[nH]3)n2)cc1 as listed: activity, negative = inhibition: inactive: -8.41%
